The values that follow come from patent US20250145733A1 (University of California, published 2025).

Sequences of proteins named here, by UniProt entry; tags and fusion partners are left off. Residues count along the entry.
UniProt P10696, residues 20-503: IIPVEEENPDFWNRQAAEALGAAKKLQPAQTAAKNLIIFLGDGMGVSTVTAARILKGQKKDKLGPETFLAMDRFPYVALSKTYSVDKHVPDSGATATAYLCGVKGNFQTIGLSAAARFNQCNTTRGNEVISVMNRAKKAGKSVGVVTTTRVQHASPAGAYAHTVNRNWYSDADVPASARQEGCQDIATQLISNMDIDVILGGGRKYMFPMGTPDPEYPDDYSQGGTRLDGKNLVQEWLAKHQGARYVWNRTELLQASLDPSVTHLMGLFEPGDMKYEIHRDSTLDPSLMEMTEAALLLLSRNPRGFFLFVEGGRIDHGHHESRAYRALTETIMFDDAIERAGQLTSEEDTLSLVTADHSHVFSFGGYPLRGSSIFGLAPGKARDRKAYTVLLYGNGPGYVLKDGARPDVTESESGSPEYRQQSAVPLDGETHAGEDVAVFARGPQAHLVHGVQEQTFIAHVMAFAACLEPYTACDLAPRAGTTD

This assay has as its target human ALPPL2 on tumor cells (M28, SKOV3, AsPC1) (human) (UniProt P10696). The assay can be described thus: flow cytometry on living M28 cells, 1 h at RT. (In flow cytometry, cells or beads pass a laser one at a time.)

Where a chain is given by its changes, count along the chain named. No constants are given. Whether binding was seen depends on the method and setting. Some entries that bind do so weakly or less than the wild type.

B1: FYIA_germ Fab (Fab, V domains shown)
VH: EVQLVESGGGLVQPGGSLRLSCAASGFTFSSYAMHWVRQAPGKGLEWVAVISYDGSNKYYADSVKGRFTISRDNSKNTLYLQMNSLRAEDTAVYYCAKEGDSSRWSYDLWGRGTLVTVSS
VL: QSALTQPASVSGSPGQSITISCTGTSSDVGGYNYVSWYQQHPGKAPKLMIYDVTNRPSGVSNRFSGSKSGNTASLTISGLQAEDEADYYCSSYTIASTLVVFGGGTKLTVL
notes: Tested as monovalent Fab
Consider B1, for which the binding result is reported as “binds”.

B2: FYIA_germopt Fab (Fab, V domains shown)
VH: B1 VH with S31A, D54E, S56Y, K58A, S102Y, S106A, L109Y
VL: B1 VL with R56Y, I95V, S97T
notes: Tested as monovalent Fab; also called SYLY
With B2, the binding result was “binds”.
